Experimental data taken from PubChem BioAssay AID248 (DTP/NCI, 2004).
The list does not hold the whole screen: it is rich in T/C values a quarter to a half above the control, in often repeated tests (any T/C) and in doses without a T/C. Other doses and runs of a compound stand elsewhere. T/C gives the treated animals as a percentage of the vehicle group. Some doses have a count of surviving animals in place of a T/C: the source files T/C as zero there, which appears to mark a toxic dose or a test without result, not a measured value. Some doses without a T/C left all or most animals alive at the check, yet need not have been tolerated: the source hardly ever lists a survival T/C far under the control, and the zero likely stands for such cases as well. Survivors were counted at the toxicity check, usually on the fifth day, unless a day is given; later deaths do not show. Schedules are NCI's codes, taken here to give the interval after Q, in days (D) or hours (H), and the number of doses after X. Some entries were tested several times; their values stand side by side, smallest first. Some schedule codes hold Z or #, which are not explained here. For survival time, the PubChem record calls one and a half times the control and up active, and a quarter to a half above the control has no call in these data; cut-offs in other NCI protocols can differ. Some T/C values are followed by the survivors on the day toxicity was checked, most often the fifth; where none is given, no animal had died by that day.

System: L1210 leukemia ip in BDF1 mice, survival T/C
Assay: NCI In Vivo Anticancer Drug Screen. Data for tumor model L1210 Leukemia (intraperitoneal) in B6D2F1 (BDF1) mice
Settings: T/C endpoint: mean survival time, higher T/C = longer survival
[1] = dose: 50.0 mg/kg/injection, schedule: Q01DX009 (ip), vehicle: saline with Tween-80
[2] = dose: 100.0 mg/kg/injection, schedule: Q01DX009 (ip), vehicle: saline with Tween-80
[3] = dose: 400.0 mg/kg/injection, schedule: Q04DX003 (ip), vehicle: Klucel (hydroxypropylcellulose) (HPC)
[4] = dose: 100.0 mg/kg/injection, schedule: Q01DX009 (ip), vehicle: Klucel (hydroxypropylcellulose) (HPC)
[5] = dose: 400.0 mg/kg/injection, schedule: Q01DX009 (ip), vehicle: Klucel (hydroxypropylcellulose) (HPC)
[6] = dose: 100.0 mg/kg/injection, schedule: Q04DX002 (ip), vehicle: saline with Tween-80
[7] = dose: 200.0 mg/kg/injection, schedule: Q04DX002 (ip), vehicle: saline with Tween-80
[8] = dose: 400.0 mg/kg/injection, schedule: Q04DX002 (ip), vehicle: saline with Tween-80
[9] = dose: 400.0 mg/kg/injection, schedule: Q01DX001 (ip), vehicle: saline
[10] = dose: 200.0 mg/kg/injection, schedule: Q01DX009 (ip), vehicle: saline
[11] = dose: 200.0 mg/kg/injection, schedule: Q04DX003 (ip), vehicle: saline
[12] = dose: 400.0 mg/kg/injection, schedule: Q04DX003 (ip), vehicle: saline
[13] = dose: 100.0 mg/kg/injection, schedule: Q01DX Z (ip), vehicle: methylcellulose (MC)

## O=S1(=O)C=C(c2ccccc2)C(c2ccccc2)=C1
[1]
  survivor count: 6 of 6
[2]
  survivor count: 3 of 6 and 4 of 6
dose: 200.0 mg/kg/injection, schedule: Q04DX003 (ip), vehicle: Klucel (hydroxypropylcellulose) (HPC)
  survivor count: 6 of 6
[3]
  survivor count: 4 of 6

## CN(CCOc1ccccc1O)CCOc1ccccc1O
[4]
  survivor count: 6 of 6

## CCOc1ccc(/C=C2\C=Nc3ccccc32)cc1
[5]
  survivor count: 6 of 6

## CCOC(=O)c1ccc(NC(=O)Nc2ccc(NC(C)=O)cc2)cc1
dose: 25.0 mg/kg/injection, schedule: Q01DX009 (ip), vehicle: saline with Tween-80
  survivor count: 3 of 3
dose: 25.0 mg/kg/injection, schedule: Q04DX002 (ip), vehicle: saline with Tween-80
  survivor count: 3 of 3
[1]
  survivor count: 3 of 3
[2]
  survivor count: 3 of 3
[6]
  T/C: 88, 96, 97 % of control [5 of 6 alive]
  survivor count: 3 of 3
dose: 100.0 mg/kg/injection, schedule: Q04DX003 (ip), vehicle: saline with Tween-80
  survivor count: 6 of 6
dose: 200.0 mg/kg/injection, schedule: Q01DX009 (ip), vehicle: saline with Tween-80
  survivor count: 3 of 3
[7]
  survivor count: 3 of 6
[8]
  survivor count: 3 of 6

## O=C(Nc1cccc(Cl)c1)Oc1c(Cl)cc(S(=O)(=O)F)cc1Cl
[7]
  survivor count: 0 of 3
[8]
  survivor count: 0 of 3

## Cc1cc(OC(=O)N(C)C)n(-c2ccccc2)n1
dose: 75.0 mg/kg/injection, schedule: Q01DX001 (ip), vehicle: saline
  survivor count: 0 of 6
dose: 150.0 mg/kg/injection, schedule: Q01DX001 (ip), vehicle: saline
  survivor count: 0 of 6
dose: 300.0 mg/kg/injection, schedule: Q01DX001 (ip), vehicle: saline
  survivor count: 0 of 6

## CCC(C)[n+]1cc([O-])on1 (configuration not stated)
[4]
  survivor count: 2 of 6
dose: 200.0 mg/kg/injection, schedule: Q01DX009 (ip), vehicle: Klucel (hydroxypropylcellulose) (HPC)
  survivor count: 0 of 6
[5]
  survivor count: 0 of 6

## CN=C(N)c1ccc(NC(=O)Nc2ccc(NC(=O)Nc3ccc(C(N)=NC)cc3)cc2)cc1
dose: 15.0 mg/kg/injection, schedule: Q01DX Z (ip), vehicle: saline
  T/C: 126 % of control
dose: 30.0 mg/kg/injection, schedule: Q01DX Z (ip), vehicle: saline
  T/C: 135 % of control

## CCN(CC)C(=O)/C=C/c1ccccc1
[9]
  survivor count: 2 of 4

## NC(N)=Nc1ccc(C(=O)Oc2ccc([N+](=O)[O-])cc2CN2CCCCC2)cc1
dose: 6.25 mg/kg/injection, schedule: Q04DX003 (ip), vehicle: water
  survivor count: 2 of 6
dose: 12.5 mg/kg/injection, schedule: Q04DX003 (ip), vehicle: water
  survivor count: 0 of 6
dose: 25.0 mg/kg/injection, schedule: Q01DX009 (ip), vehicle: water
  survivor count: 0 of 6
dose: 25.0 mg/kg/injection, schedule: Q04DX003 (ip), vehicle: water
  survivor count: 2 of 6
dose: 50.0 mg/kg/injection, schedule: Q04DX003 (ip), vehicle: water
  survivor count: 0 of 6
dose: 100.0 mg/kg/injection, schedule: Q04DX003 (ip), vehicle: water
  survivor count: 2 of 6
dose: 200.0 mg/kg/injection, schedule: Q04DX003 (ip), vehicle: water
  survivor count: 1 of 6
dose: 400.0 mg/kg/injection, schedule: Q04DX003 (ip), vehicle: water
  survivor count: 0 of 6

## CN1CCN(C(CO)Cc2ccccc2)CC1 (configuration not stated)
[9]
  survivor count: 0 of 4

## COc1cc2c(cc1O)-c1cc3ccc(OC)c(OC)c3c[n+]1CC2
dose: 200.0 mg/kg/injection, schedule: Q04DX002 (ip), vehicle: Klucel (hydroxypropylcellulose) (HPC)
  T/C: 128 % of control
dose: 400.0 mg/kg/injection, schedule: Q04DX002 (ip), vehicle: Klucel (hydroxypropylcellulose) (HPC)
  survivor count: 0 of 3

## CCC1N2CCc3cc(OC)c(OC)cc3C2CCC1(O)Cc1ccccn1 (configuration not stated)
dose: 400.0 mg/kg/injection, schedule: Q04DX003 (ip), vehicle: carboxymethylcellulose (CMC)
  survivor count: 0 of 6

## CCn1c2ccccc2c2cc(NC(=O)N(CCCl)N=O)ccc21
dose: 177.0 mg/kg/injection, schedule: Q01DX001 (ip), vehicle: carboxymethylcellulose (CMC)
  T/C: 130 % of control
dose: 266.0 mg/kg/injection, schedule: Q01DX001 (ip), vehicle: carboxymethylcellulose (CMC)
  T/C: 135 % of control
dose: 400.0 mg/kg/injection, schedule: Q01DX001 (ip), vehicle: carboxymethylcellulose (CMC)
  T/C: 135 % of control
dose: 400.0 mg/kg/injection, schedule: Q01DX009 (ip), vehicle: carboxymethylcellulose (CMC)
  T/C: 137 % of control
dose: 600.0 mg/kg/injection, schedule: Q01DX001 (ip), vehicle: carboxymethylcellulose (CMC)
  T/C: 133 % of control
dose: 600.0 mg/kg/injection, schedule: Q01DX009 (ip), vehicle: carboxymethylcellulose (CMC)
  T/C: 127 % of control

## Cc1ccc(Cl)cc1NC(=O)NCCCl
[3]
  survivor count: 3 of 6

## O=C1Cc2cccc(=O)c(O)c2C(=O)O1
dose: 100.0 mg/kg/injection, schedule: Q01DX009 (ip), vehicle: saline
  survivor count: 6 of 6
[10]
  survivor count: 6 of 6
[11]
  survivor count: 2 of 6
dose: 400.0 mg/kg/injection, schedule: Q01DX009 (ip), vehicle: saline
  survivor count: 6 of 6
[12]
  survivor count: 2 of 6

## NCCSCCN
[5]
  survivor count: 0 of 6

## C(/C=C/C=C/N1CCCCC1)=[N+]1CCCCC1
dose: 1.56 mg/kg/injection, schedule: Q04DX003 (ip), vehicle: saline
  survivor count: 0 of 6
dose: 3.13 mg/kg/injection, schedule: Q04DX003 (ip), vehicle: saline
  survivor count: 4 of 6
dose: 6.25 mg/kg/injection, schedule: Q04DX003 (ip), vehicle: saline
  survivor count: 0 of 6
dose: 12.5 mg/kg/injection, schedule: Q04DX003 (ip), vehicle: saline
  survivor count: 0 of 6
dose: 25.0 mg/kg/injection, schedule: Q04DX003 (ip), vehicle: saline
  survivor count: 0 of 6
dose: 50.0 mg/kg/injection, schedule: Q04DX003 (ip), vehicle: saline
  survivor count: 0 of 6
dose: 100.0 mg/kg/injection, schedule: Q04DX003 (ip), vehicle: saline
  survivor count: 0 of 6
[11]
  survivor count: 0 of 6
[12]
  survivor count: 0 of 6

## CC1CCN(C(=O)CC#N)CC1
[10]
  survivor count: 1 of 3
dose: 400.0 mg/kg/injection, schedule: Q04DX002 (ip), vehicle: saline
  survivor count: 1 of 3

## CCN(CC)CCCCNc1ccc(NCCCCN(CC)CC)c2c1C(=O)c1ccccc1C2=O
dose: 100.0 mg/kg/injection, schedule: Q04DX002 (ip), vehicle: alcohol
  survivor count: 3 of 3
dose: 200.0 mg/kg/injection, schedule: Q04DX002 (ip), vehicle: alcohol
  survivor count: 3 of 3
dose: 400.0 mg/kg/injection, schedule: Q04DX002 (ip), vehicle: alcohol
  survivor count: 2 of 3

## C1=C\C2CC2CCCC/1 (configuration not stated)
dose: 100.0 mg/kg/injection, schedule: Q01DX005 (ip), vehicle: saline with Tween-80
  survivor count: 3 of 3
dose: 200.0 mg/kg/injection, schedule: Q01DX005 (ip), vehicle: saline with Tween-80
  survivor count: 3 of 3
dose: 400.0 mg/kg/injection, schedule: Q01DX005 (ip), vehicle: saline with Tween-80
  survivor count: 3 of 3

## Cc1cc(N(C)C)nc(SCc2ccc(Cl)cc2Cl)n1
[13]
  survivor count: 4 of 6

## Cc1cccc(Nc2cc(C)nc(N)n2)c1
[13]
  survivor count: 1 of 6
dose: 200.0 mg/kg/injection, schedule: Q01DX Z (ip), vehicle: methylcellulose (MC)
  survivor count: 5 of 6
